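Each compound is printed as two spots on a slide made to bind it covalently, so it has no test concentration; the read-out is fluorescence of the bound, labelled oligonucleotide. The data file lists only calls. An earlier report of the laboratory on the PreQ1, TPP and SAM-II riboswitches (doi:10.1038/s41467-019-09493-3) used 1 µM RNA for 2 h and required a mean Z-score above 3 (spot signal-to-noise against the whole library), a score well above that on a control array, and duplicate spots agreeing (coefficient of variation under 100); it then also set aside compounds that hit other targets, which this list keeps. The cut-offs behind this list may differ. A missing hit is not proof of no binding, and a hit is not a measured affinity.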
“hit” means called a hit, “no hit” means screened and not called a hit.
This is an unselected part of the compounds tested.
A target missing from an entry has no call listed here.
A dash means that no call is listed here.

Targets, with sequences 5′ to 3′:
SAM-II: SAM-II riboswitch RNA pseudoknot, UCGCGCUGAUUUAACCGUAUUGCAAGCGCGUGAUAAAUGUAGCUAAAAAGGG. About 21,000 compounds screened, about 200 hits.
PreQ1: PreQ1 riboswitch RNA pseudoknot, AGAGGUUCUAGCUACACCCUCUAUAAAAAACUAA. From B. subtilis. About 24,000 compounds screened, about 170 hits.
TPP: TPP riboswitch RNA three-way junction, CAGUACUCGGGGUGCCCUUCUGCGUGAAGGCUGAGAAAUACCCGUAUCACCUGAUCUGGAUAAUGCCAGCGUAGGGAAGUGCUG. About 24,000 compounds screened, about 160 hits.

| Compound | SAM-II | PreQ1 | TPP |
|---|---|---|---|
| `CC(Cc1ccccc1)NC(N)=O` (stereo not shown) | no hit | no hit | no hit |
| `COC(=O)c1cccc(NCc2ccc(C(F)(F)F)cc2)c1` | no hit | no hit | no hit |
| `COc1ccc(-c2cc(-c3nnc(N)o3)no2)cc1OC` | no hit | no hit | no hit |
| `CC[C@H](N)C(=O)Nc1nn(CC(F)(F)F)c2cc(OC(C)C)ccc12` | no hit | no hit | no hit |
| `CCOC(=O)Nc1c2ccccc2nc2ccccc12` | no hit | no hit | no hit |
| `CC1CCCCN1C(=O)c1ccccc1N` (stereo not shown) | no hit | no hit | no hit |
| `NCc1cnccn1` | no hit | no hit | no hit |
| `Cn1c(=O)[nH]c(=O)c2c1nc(N1CCCCC1)n2CC(O)c1ccccc1` (stereo not shown) | no hit | no hit | no hit |
| `CC1=C2C3OC(=O)C(C)C3CCC2(C)C=C(Cl)C1=O` (stereo not shown) | no hit | no hit | no hit |
| `CC(Cn1ccnc1)NCc1csc2c1CCCC2` (stereo not shown) | no hit | no hit | no hit |
| `c1ccc(CC(CCNCc2ccco2)c2ccco2)cc1` (stereo not shown) | no hit | no hit | no hit |
| `O=C(CC1CCS(=O)(=O)CC1)N[C@H]1CN(CCCO)C[C@@H]1C1CC1` | no hit | no hit | no hit |
| `Oc1ccc(C2=Cc3ccc(O)cc3OC2)cc1` | no hit | no hit | no hit |
| `Cc1cccc(NC(=O)c2c(N)sc3c2CCC(C)C3)c1` (stereo not shown) | no hit | no hit | no hit |
| `O=C(NCCNc1cccnc1)c1ccc2cccc(F)c2n1` | no hit | no hit | no hit |
| `Cc1cccc(NC2=NS(=O)(=O)c3ccccc32)c1` | no hit | no hit | no hit |
| `CC1=CC(C)C2(CO)COC(c3ccccc3O)C1C2C` (stereo not shown) | hit | no hit | no hit |
| `COc1cc(C=Cc2nc(C#N)c(NC3CC3)o2)cc(OC)c1OC` | - | no hit | no hit |
| `CCc1ccc(S(=O)(=O)C2CS(=O)(=O)CC2NCc2cccnc2)cc1` (stereo not shown) | no hit | no hit | no hit |
| `COc1ccc(CCNCc2ccsc2)cc1` | no hit | no hit | no hit |
| `CCCC(NC1CCS(=O)(=O)C1)C(=O)O` (stereo not shown) | no hit | no hit | no hit |
| `O=C(CCc1ccc2c(c1)OCO2)N1CCC2(CC1)OCCCC2O` (stereo not shown) | no hit | no hit | no hit |
| `CC(C)CC(=O)Nc1ccnn1C1CCN(C(=O)[C@H](N)CC(C)(C)C)CC1` | no hit | no hit | no hit |
| `O=C(Nc1cccc(-c2cscn2)c1)N[C@H]1CC[C@H](O)CC1` | no hit | no hit | no hit |
| `O=C(CCc1ccccc1)Oc1ccc(NC2=NS(=O)(=O)c3ccccc32)cc1` | no hit | no hit | no hit |
| `COc1cccc(-c2ccccc2NC(=O)C2CCN(c3ccnc(N)n3)CC2)c1` | hit | no hit | no hit |
| `CN1C2c3ccccc3C3C4c5ccccc5C(C31)C(C2[N+](=O)[O-])N4C` (stereo not shown) | no hit | no hit | no hit |
| `CC1=C(c2ccc(C)c(C)c2)S(=O)(=O)N=C1NCc1ccc(F)cc1` | - | no hit | no hit |
| `Clc1ccc2nc(N3CCC(NCCc4c[nH]cn4)CC3)sc2c1` | hit | no hit | no hit |
| `CCCCc1nc(CN2CCC(N)(C(=O)O)C2)c[nH]1` (stereo not shown) | no hit | no hit | no hit |
| `Cl.OCC1CCCCN1CC(O)COc1ccc(Cl)cc1` (stereo not shown) | no hit | no hit | no hit |
| `N#Cc1c(-c2ccco2)cc(-c2cc(CC(=O)O)cs2)nc1N` | no hit | no hit | no hit |
| `C=CCn1cc(-c2c(C#N)c(N)nc3c2N2CCC3CC2)cn1` | no hit | no hit | no hit |
| `Cc1c(C)n(CC(O)CNC(C)(C)C)c2ccccc12` (stereo not shown) | no hit | no hit | no hit |
| `COC(=O)Cc1cnc(N)s1` | no hit | no hit | no hit |
| `CCn1nc(CNC(=O)[C@@]23CNC[C@@H]2CN(C)C3)c2ccccc21` | no hit | no hit | no hit |
| `CCCc1cc(C(=O)N2CCC(C(O)c3cccs3)CC2)no1` (stereo not shown) | no hit | no hit | no hit |
| `CN1CCC(=C2c3ccccc3C(O)c3ccccc32)CC1` (stereo not shown) | no hit | no hit | no hit |
| `Cc1cc(N2CCOCC2)nc(N2CCOCC2)n1` | no hit | no hit | no hit |
| `O=C(CCS(=O)(=O)c1ccccc1)NCc1cc2n(n1)CCNC2` | no hit | no hit | no hit |
| `CCn1ncnc1C(NC(=O)CCc1cc2n(n1)CCCNC2)C1CC1` (stereo not shown) | no hit | no hit | no hit |
| `CCc1n(CC(O)COc2ccc(OC)cc2)c2ccccc2[n+]1CC` (stereo not shown) | no hit | no hit | no hit |
| `C[C@@H]1CN(C[C@@H]2CN(C(=O)NC(C)(C)C)C[C@@H]2CO)C[C@H](C)O1` | no hit | no hit | no hit |
| `O=C1CSC(=S)N1/N=C/c1c[nH]c2ccc(Br)cc12` | no hit | no hit | no hit |
| `Nc1ccc2nn(-c3ccc(Cl)cc3)nc2c1` | no hit | no hit | no hit |
| `O=C(c1ccccc1)c1ccc(Sc2ccc([N+](=O)[O-])cc2)cc1` | no hit | no hit | no hit |
| `COc1ccc(C(=O)O)cc1S(=O)(=O)N1C[C@H](C2CC2)[C@@H](N)C1` | no hit | no hit | no hit |

3 of the entries, repeated:

{"compound": "CC1CCCCN1C(=O)c1ccccc1N", "stereo": "stereo not shown", "SAM-II": "no hit", "PreQ1": "no hit", "TPP": "no hit"}
{"compound": "O=C(Nc1cccc(-c2cscn2)c1)N[C@H]1CC[C@H](O)CC1", "SAM-II": "no hit", "PreQ1": "no hit", "TPP": "no hit"}
{"compound": "Cc1cccc(NC(=O)c2c(N)sc3c2CCC(C)C3)c1", "stereo": "stereo not shown", "SAM-II": "no hit", "PreQ1": "no hit", "TPP": "no hit"}

From ROBIN, a set of small-molecule microarray screens (doi:10.1002/anie.202211358).